Reference: PubChem BioAssay AID1259415 (National Center for Advancing Translational Sciences (NCATS), 2018)
The whole screen tested about 410,000 compounds, of which about 18,000 (4.4%) were called active. The shares of active, inactive and inconclusive entries below differ from those in the screen. Rule as the data show it: active = activity change below about -60%; inconclusive = no clear call, values can overlap the other calls; inactive = above about -39%.

Assay: qHTS Assay for inhibitors of the human cytomegalovirus (HCMV)
Conditions: HFF cells, HCMV-luciferase reporter, 72 h; at 57.5 µM; active compounds read low
Procedure, shortened: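 Human foreskin fibroblasts infected with luciferase-reporter HCMV at MOI 1 PFU/cell, compounds at two doses. Luciferase measured 72 h post infection; normalized to buffer-only basal and Salinomycin (10uM) controls.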
% is scaled to controls: 0 for no effect and ±100 for the full control effect.

| Structure (SMILES) | activity change, negative = inhibition |
| --- | --- |
| CN1CCN(c2ccc(NC(=O)c3ccc4c(c3)[nH]c(=O)n4Cc3ccc(F)cc3)cc2)CC1 | inconclusive: -50.6% |
| COC(=O)C1=C(c2ccc(F)cc2OCc2ccccc2)C[C@@H]2CC[C@H]1N2C(=O)N1CCCC1 | inactive: -6.53% |
| O=C(Nc1ccc(Cl)cc1)c1nc[nH]c1C(=O)NCCCCNC(=O)c1[nH]cnc1C(=O)Nc1ccc(Cl)cc1 | inconclusive: -44.9% |
| COc1ccc(Nc2ccccc2N)cc1 | inconclusive: -40.4% |
| N#Cc1c(-c2ccccc2F)cc(C2CC2)nc1SCC(=O)c1cccs1 | inconclusive: -57.3% |
| CC(=O)N1Cc2cc(C(=O)NCC(F)(F)F)nc(-c3cccc(-c4cc5ccccc5o4)c3)c2[C@@H]1CCO | inconclusive: -57.8% |
| O=c1cc2oc3cc(O)c(O)cc3c(-c3ccccc3[N+](=O)[O-])c-2cc1O | active: -64% |
| CC1CN(c2nc3ccccc3nc2SCC(=O)Nc2cccc(C(F)(F)F)c2)CC(C)O1 (configuration not stated) | inconclusive: -47% |
| N=c1ccn(Cc2cccc(F)c2)cc1 | inconclusive: -45.7% |
| CC(C)CNc1ncnc2c1ncn2[C@H]1CN(Cc2ccc(F)cc2)C[C@@H](CO)O1 | inconclusive: -43.3% |
| FC(F)Oc1ccc(NC(=S)Nc2ccc3cn[nH]c3c2)cc1 | inconclusive: -51% |
| CC(=O)CC(C)(C)Nc1nc2ccc([N+](=O)[O-])cc2o1 | inactive: 30.3% |
| Cc1ccc2[nH]c(O)c(N=NC(=O)C(C)n3cnc4ccccc4c3=O)c2c1 (configuration not stated) | inconclusive: -45.2% |
| Cc1ccnn1CC(=O)N/N=C/c1c[nH]c2ccccc12 | inactive: -11.6% |
| C[C@H]1CN([C@@H](C)CO)C(=O)c2cc(NC(=O)Cc3ccccc3)ccc2O[C@H]1CN(C)Cc1ccccc1 | inconclusive: -41% |
| CCN(CC)CCCN(C(=O)c1ccc(OC)cc1)c1nc(-c2ccc(OC)cc2)cs1 | active: -62.6% |
| NS(=O)(=O)c1ccc(NC(=O)CSc2nc3ccccc3[nH]2)cc1 | inconclusive: -42.1% |
| COc1ccc(-n2cc(-c3ccccc3)c3c(NCc4cccc(Cl)c4)ncnc32)cc1 | inconclusive: -42.3% |
| O=C(NCc1ccccc1)c1ccc(NC(=O)N2CCSc3ncccc32)cc1 | inconclusive: 0% |
| O=C(Nc1nccs1)C1CCN(S(=O)(=O)c2c(Cl)cccc2Cl)CC1 | inconclusive: -55.6% |
| CCC(NC(=O)C1(C)CC1(Br)Br)c1ccc(C)cc1 (configuration not stated) | active: -72.2% |
| CN(Cc1cccnc1)C(=O)c1cc(COc2ccc3c(c2)CCCC3)on1 | active: -65.1% |

Part of the list above, in CSV form:
Structure (SMILES),"activity change, negative = inhibition"
N#Cc1c(-c2ccccc2F)cc(C2CC2)nc1SCC(=O)c1cccs1,inconclusive: -57.3%
CC(=O)N1Cc2cc(C(=O)NCC(F)(F)F)nc(-c3cccc(-c4cc5ccccc5o4)c3)c2[C@@H]1CCO,inconclusive: -57.8%
O=c1cc2oc3cc(O)c(O)cc3c(-c3ccccc3[N+](=O)[O-])c-2cc1O,active: -64%

Going on with the list:

| Structure (SMILES) | activity change, negative = inhibition |
| --- | --- |
| NC(c1csc(Nc2ccc(C(F)(F)F)cn2)n1)C1CCCCC1 (configuration not stated) | active: -102% |
| CCc1cccc(CC)c1N(COC)C(=O)Cn1c(C)nc2ccccc21 | active: -64.6% |
| Cc1ccc(-n2nc(C)c3c(C)cc(=O)n(CC(=O)NC(C)C)c32)cc1 | inactive: 19.7% |
| CCOC(=O)c1sc2ncnc(NCc3ccco3)c2c1C | inactive: 6.64% |
| Cc1nn(Cc2cccc(F)c2)c(C)c1NC(=O)c1c(Cl)cnn1C | inconclusive: -41.5% |
| O=C(Nc1ccc(Cl)c(C(F)(F)F)c1)C1Cc2c(-c3ccc4c(c3)OCO4)ccnc2O1 (configuration not stated) | inconclusive: -41% |
| COc1ccc(N(C(=O)c2cc3ccccc3oc2=O)C2C=CS(=O)(=O)C2)cc1 (configuration not stated) | inconclusive: -46.1% |
| Oc1ccc(-c2nc3ccccc3s2)cc1 | inactive: 62.7% |
| CC1(C)CC(=O)c2c(-c3cccs3)n[nH]c2C1 | inconclusive: -40.5% |
| Cc1ccc(Cn2ccn(Cc3cccc(C(F)(F)F)c3)c(=O)c2=O)cc1 | inconclusive: -42.7% |
| CCc1nn2cc(C(=O)c3cc(Cl)ccc3O)cnc2c1-c1ccc(F)cc1 | active: -70.1% |
| CCCc1c(C(=O)NNc2cc(C(F)(F)F)ccc2Cl)cnn1-c1ccccc1 | active: -65.6% |
| CC(=O)c1cccc(NC(=O)c2c(-c3c(F)cccc3Cl)noc2C)c1 | inactive: -19.8% |
| CCOc1cc(CNCCc2c[nH]c3ccccc23)cc(Cl)c1OC | inactive: -22.6% |
| O=C(CCCn1c(=O)c2cccn2c2ccccc21)Nc1cccc(Cl)c1 | active: -69.9% |
| CC(C)c1cc(C(=O)NC2CCCc3c2cnn3-c2ccccc2F)no1 (configuration not stated) | active: -88.1% |
| Cc1onc(-c2ccccc2)c1C(=O)N1CCN(c2ccc([N+](=O)[O-])cc2)CC1 | inactive: -26.8% |
| O=C(N/N=C/c1ccco1)C1CC1c1ccccc1 (configuration not stated) | inactive: -17% |
| O=C(CN1CCCCCCC1)N/N=C/c1ccc([N+](=O)[O-])o1 | inconclusive: -59.9% |
| O=C(C1CCCO1)N1CCN(C(=S)NC2CC2)CC1 (configuration not stated) | inconclusive: -41.3% |
| CNC(=O)C[C@H]1C(=O)N(Cc2ccccc2)C[C@@H]1C | inactive: -2.2% |
| CC(C)N1CCC(=NNC(=O)c2ccccc2[N+](=O)[O-])CC1 | inactive: -9.68% |

A few values from above:
In activity change, negative = inhibition, Cc1ccc(Cn2ccn(Cc3cccc(C(F)(F)F)c3)c(=O)c2=O)cc1 shows inconclusive: -42.7%
In activity change, negative = inhibition, Cc1ccnn1CC(=O)N/N=C/c1c[nH]c2ccccc12 shows inactive: -11.6%

(list continues)

| Structure (SMILES) | activity change, negative = inhibition |
| --- | --- |
| CCc1ccc(-c2nc(SCC(=O)NC3CC3)n[nH]2)cc1 | inactive: 45.5% |
| COc1ccc(NC(=O)c2sc3nc(Cc4ccccc4)cc(C(F)(F)F)c3c2N)cc1OC | inconclusive: -57.3% |
| Cc1c(C(=O)N(C)CCC#N)oc2ccc(S(=O)(=O)N3CC(C)CC(C)C3)cc12 (configuration not stated) | inconclusive: -52.7% |
| Cc1cnc(NC(=O)c2sc(Nc3ccccc3)nc2N)o1 | inactive: 67.8% |
| COc1ccc(-c2cccc(NS(=O)(=O)c3cccs3)c2)nn1 | inactive: 24.2% |
| Cc1ccc(N(CC(=O)NCCSc2nc3ccccc3s2)S(=O)(=O)c2ccccc2)c(C)c1 | inconclusive: -58.3% |
| O=C(NCc1ccco1)c1cccc(-c2ccc3nccn3c2)c1 | inconclusive: -47.8% |
| Cc1cnc(CNC(=O)CC2C(=O)NCCN2Cc2ccccc2F)cn1 (configuration not stated) | inconclusive: -45.8% |
| COc1ccc(/C=N/N2CCOCC2)cc1OCc1ccccc1 | inconclusive: -43.3% |
| Cc1n(Cc2ccccc2)c2ccccc2[n+]1Cc1ccccc1 | inconclusive: -55.5% |
| CCOC(=O)C1(c2ccccc2)CCN(CCC(=O)Nc2cccc(Br)c2)CC1 | inconclusive: -49.1% |
| Cc1ccc(SCc2nc(N)nc(Nc3ccccc3C)n2)c(C)c1 | active: -61% |
| COc1ccc(NC(=O)c2ccco2)cc1NC(=O)C(C)Oc1ccc(Cl)cc1Cl (configuration not stated) | active: -80.1% |
| COc1ccc(CNC(=O)c2cc3c(=O)[nH]c4ccccc4c3n2C)cc1 | inconclusive: -46% |
| Cc1ccccc1C(=O)c1cccn1CC(=O)NCc1ccccc1Cl | inactive: 54.9% |
| Cc1ccccc1-n1sc2cc(F)ccc2c1=O | active: -97.8% |
| COc1ccccc1NC(=O)N1CCCC1C(=O)NCC1CCCO1 (configuration not stated) | inconclusive: -42.9% |
| COc1ccc(CSc2nc(C)cc(C)c2C#N)cc1 | inconclusive: -47.7% |
| O=C(Cc1ccc(-n2c(=O)[nH]c3ccccc3c2=O)cc1)N1CCN(c2ccccc2)CC1 | inactive: 8.6% |
| Cc1cnc(C)c(N2CCN(Cc3nc(-c4ccc(C)o4)oc3C)CC2)n1 | inconclusive: -48.7% |
| O=c1c2ccccc2nc2n1C(CSCc1cccc(C(F)(F)F)c1)CS2 (configuration not stated) | active: -67.5% |
| FC(F)(F)c1cc(-c2cnc3ccc(NCc4ccco4)nn23)cc(C(F)(F)F)c1 | inactive: -10.4% |

| Structure (SMILES) | activity change, negative = inhibition |
| --- | --- |
| CCCCCCOc1ccc(N2C(=O)CC(N(CCc3ccc(S(N)(=O)=O)cc3)C(C)=O)C2=O)cc1 (configuration not stated) | inactive: -37.2% |
| Cc1ccc2[nH]c(=O)c3cc(C(=O)N(C)c4ccccc4C)sc3c2c1 | inconclusive: -43.3% |
| O=S(=O)(/N=C(\[O-])C[n+]1ccccc1)c1ccc(Cl)cc1 | inconclusive: -42.7% |
| CCN1C(=O)CC(C(=O)Nc2ccc(F)cc2)SC1=Nc1ccc2c(c1)OCO2 (configuration not stated) | inconclusive: -44.2% |
| O=C(NC(=S)Nc1ccc(CN2CCOCC2)cc1)c1cc2ccccc2o1 | active: -70.2% |
| COc1ccc(/C(O)=C2\C(=O)C(=O)N(CCN3CCOCC3)C2c2ccccc2OC)cc1 (configuration not stated) | inactive: -31.6% |
| c1ccc(Nc2scc(-c3ccccc3)[n+]2Cc2ccco2)cc1 | inactive: 20.1% |
| O=C(CNc1cccc2ccccc12)N/N=C/c1ccc([N+](=O)[O-])o1 | active: -94.9% |
| O=C(C1CC(=O)N(c2ccc(Cl)cc2)C1)N1CCOCC1 (configuration not stated) | inactive: -20.1% |
| CC(NC(=O)c1cc2c(=O)n3ccccc3nc2n(CC2CCCO2)c1=N)c1ccccc1 (configuration not stated) | inactive: -22.4% |
| CN(CC1CCCN(CCc2ccc(Cl)cc2)C1)C(=O)C(=O)c1ccco1 (configuration not stated) | inconclusive: -46.5% |
| Cc1ccc(CN2CCN(C)CC2)c(C)c1 | inactive: -20.1% |
| Cn1c2c(c(=O)n(C)c1=O)C(c1ccccc1OC(F)F)C1=C(CCCC1=O)N2 (configuration not stated) | inactive: -0.832% |
| COc1ccccc1C(=O)NCCc1nc2ccccc2[nH]1 | inactive: 15.3% |
| COc1ccc(-c2cn[nH]c2-c2ccc(OCc3ccc(F)cc3)cc2O)cc1OC | inconclusive: -53.1% |
| CC(Sc1ncc(S(=O)(=O)c2ccc(C(C)C)cc2)c(N)n1)C(=O)Nc1ccccc1 (configuration not stated) | active: -73.8% |
| Cn1c(SCC(=O)Nc2ccc3[nH]c(=O)[nH]c3c2)nnc1-c1ccccc1 | inconclusive: -44.3% |
| COc1ccccc1NC(=O)C(C)OC(=O)C(C)SCC(=O)Nc1ccc(C)cc1 (configuration not stated) | inactive: 6.66% |
| Nc1nc(CN2CCN(Cc3ccccc3)CC2)nc(N2CCCc3ccccc32)n1 | inconclusive: -48.8% |
| COc1ccc(-c2c[n+](CC(=O)c3ccccc3)c3n2CCCCC3)cc1 | inconclusive: -48.8% |
| O=C(NC1CC(=O)N(c2ccccc2)C1)C1CCCC1 (configuration not stated) | inactive: 67.3% |
